Data from article PMC4762385.

T1: OsRPA1c, bait in pGBKT7 (rice (Oryza sativa L.)) (UniProt Q65XV7)
T1 sequence: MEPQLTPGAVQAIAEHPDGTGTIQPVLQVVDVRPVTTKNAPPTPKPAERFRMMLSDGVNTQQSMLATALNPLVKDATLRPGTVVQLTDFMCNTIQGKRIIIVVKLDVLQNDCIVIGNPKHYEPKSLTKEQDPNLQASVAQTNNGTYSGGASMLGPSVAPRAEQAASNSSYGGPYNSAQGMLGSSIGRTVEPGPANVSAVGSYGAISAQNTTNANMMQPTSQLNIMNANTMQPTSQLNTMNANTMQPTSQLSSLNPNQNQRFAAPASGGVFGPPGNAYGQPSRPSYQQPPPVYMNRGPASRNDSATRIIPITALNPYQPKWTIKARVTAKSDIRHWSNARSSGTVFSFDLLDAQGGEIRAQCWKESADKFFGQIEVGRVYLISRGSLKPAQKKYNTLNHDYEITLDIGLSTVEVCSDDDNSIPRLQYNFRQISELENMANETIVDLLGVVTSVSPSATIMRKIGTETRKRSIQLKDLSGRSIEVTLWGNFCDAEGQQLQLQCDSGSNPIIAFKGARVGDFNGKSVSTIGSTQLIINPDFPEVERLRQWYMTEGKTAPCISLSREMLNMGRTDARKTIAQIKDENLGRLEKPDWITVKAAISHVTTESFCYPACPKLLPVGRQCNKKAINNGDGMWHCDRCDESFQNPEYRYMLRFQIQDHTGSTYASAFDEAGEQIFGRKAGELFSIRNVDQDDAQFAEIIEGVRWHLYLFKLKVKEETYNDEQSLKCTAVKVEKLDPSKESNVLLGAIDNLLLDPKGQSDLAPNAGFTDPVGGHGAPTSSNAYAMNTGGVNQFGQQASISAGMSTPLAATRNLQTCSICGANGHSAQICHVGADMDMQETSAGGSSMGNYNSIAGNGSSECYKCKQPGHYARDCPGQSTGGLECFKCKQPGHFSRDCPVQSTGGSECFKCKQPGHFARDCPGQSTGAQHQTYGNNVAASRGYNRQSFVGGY

T2: OsRPA2c, bait in pGBKT7 (rice (Oryza sativa L.)) (UniProt Q5Z8L1)
T2 sequence: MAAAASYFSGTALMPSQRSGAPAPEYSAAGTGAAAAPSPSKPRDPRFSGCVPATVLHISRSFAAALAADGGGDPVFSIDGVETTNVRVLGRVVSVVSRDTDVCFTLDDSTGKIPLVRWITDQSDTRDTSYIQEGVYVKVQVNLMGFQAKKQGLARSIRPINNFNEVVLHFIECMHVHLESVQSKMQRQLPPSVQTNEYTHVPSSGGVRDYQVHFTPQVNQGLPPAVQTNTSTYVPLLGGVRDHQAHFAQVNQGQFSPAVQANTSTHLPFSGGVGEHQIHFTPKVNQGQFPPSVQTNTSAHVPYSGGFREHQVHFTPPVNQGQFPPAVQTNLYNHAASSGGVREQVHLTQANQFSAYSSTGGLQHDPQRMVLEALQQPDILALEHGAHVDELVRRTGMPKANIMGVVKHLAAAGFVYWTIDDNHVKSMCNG


Legend:
[1] = biological target: T1, OsRPA1c, bait in pGBKT7 (rice (Oryza sativa L.)); experiment: two-hybrid; pGADT7 prey and pGBKT7 bait co-transformed into Gold yeast; dilution series spotted on -LTH or -LTHA medium with X-alpha-gal, 30 °C
[2] = biological target: T2, OsRPA2c, bait in pGBKT7 (rice (Oryza sativa L.)); experiment: as above
[3] = biological target: GST–OsMSH5 (rice (Oryza sativa L.)); experiment: pull-down; GST- and OsMSH5–GST-coupled beads used to capture MBP fusions of OsRPA1a, OsRPA2b, OsRPA1c, OsRPA2c; proteins from E. coli BL21; detected with anti-MBP antibody

Molecule	binding [1]	binding [2]	binding [3]
OsMSH5 (full-length, in prey vector pGADT7) (rice (Oryza sativa L.))	binds	binds	
MBP–OsRPA2c (protein, UniProt Q5Z8L1 1-430) MAAAASYFSGTALMPSQRSGAPAPEYSAAGTGAAAAPSPSKPRDPRFSGCVPATVLHISRSFAAALAADGGGDPVFSIDGVETTNVRVLGRVVSVVSRDTDVCFTLDDSTGKIPLVRWITDQSDTRDTSYIQEGVYVKVQVNLMGFQAKKQGLARSIRPINNFNEVVLHFIECMHVHLESVQSKMQRQLPPSVQTNEYTHVPSSGGVRDYQVHFTPQVNQGLPPAVQTNTSTYVPLLGGVRDHQAHFAQVNQGQFSPAVQANTSTHLPFSGGVGEHQIHFTPKVNQGQFPPSVQTNTSAHVPYSGGFREHQVHFTPPVNQGQFPPAVQTNLYNHAASSGGVREQVHLTQANQFSAYSSTGGLQHDPQRMVLEALQQPDILALEHGAHVDELVRRTGMPKANIMGVVKHLAAAGFVYWTIDDNHVKSMCNG			binds

Results, then the molecule that gave them:

binding [1]	binding [2]	binding [3]	Molecule
no binding	no binding		OsMSH4 (wild type, two-hybrid fusion) (rice (Oryza sativa L.))
		binds	MBP–OsRPA1c (protein, UniProt Q65XV7 1-951) MEPQLTPGAVQAIAEHPDGTGTIQPVLQVVDVRPVTTKNAPPTPKPAERFRMMLSDGVNTQQSMLATALNPLVKDATLRPGTVVQLTDFMCNTIQGKRIIIVVKLDVLQNDCIVIGNPKHYEPKSLTKEQDPNLQASVAQTNNGTYSGGASMLGPSVAPRAEQAASNSSYGGPYNSAQGMLGSSIGRTVEPGPANVSAVGSYGAISAQNTTNANMMQPTSQLNIMNANTMQPTSQLNTMNANTMQPTSQLSSLNPNQNQRFAAPASGGVFGPPGNAYGQPSRPSYQQPPPVYMNRGPASRNDSATRIIPITALNPYQPKWTIKARVTAKSDIRHWSNARSSGTVFSFDLLDAQGGEIRAQCWKESADKFFGQIEVGRVYLISRGSLKPAQKKYNTLNHDYEITLDIGLSTVEVCSDDDNSIPRLQYNFRQISELENMANETIVDLLGVVTSVSPSATIMRKIGTETRKRSIQLKDLSGRSIEVTLWGNFCDAEGQQLQLQCDSGSNPIIAFKGARVGDFNGKSVSTIGSTQLIINPDFPEVERLRQWYMTEGKTAPCISLSREMLNMGRTDARKTIAQIKDENLGRLEKPDWITVKAAISHVTTESFCYPACPKLLPVGRQCNKKAINNGDGMWHCDRCDESFQNPEYRYMLRFQIQDHTGSTYASAFDEAGEQIFGRKAGELFSIRNVDQDDAQFAEIIEGVRWHLYLFKLKVKEETYNDEQSLKCTAVKVEKLDPSKESNVLLGAIDNLLLDPKGQSDLAPNAGFTDPVGGHGAPTSSNAYAMNTGGVNQFGQQASISAGMSTPLAATRNLQTCSICGANGHSAQICHVGADMDMQETSAGGSSMGNYNSIAGNGSSECYKCKQPGHYARDCPGQSTGGLECFKCKQPGHFSRDCPVQSTGGSECFKCKQPGHFARDCPGQSTGAQHQTYGNNVAASRGYNRQSFVGGY

No constants are given. Whether binding was seen depends on the method and setting. Binding calls can cover weak binding; strength is not graded here. For part of these data: Binding seen in cells or lysates may run through a third protein. For part of these data: Where a sequence is shown, tags or fusion partners need not be part of it.
